Results from PMC9209448.
The exact form of at least one protein or probe is not confirmed. At least one result comes from cells or an extract, where the contact may be indirect. For part of these data: Negatives hold for the conditions tested. For part of these data: At least one verdict rests on a figure or table, not on a statement of the authors.

Key:
[1] = tested on: aryl hydrocarbon receptor (AhR), presumed AhR:ARNT complex; experiment: EMSA; conditions: nuclear extract of DIMBOA-treated cells; EMSA: LightShift kit, 20 uL, 20 fmol biotinylated probe, 3.5-4 ug nuclear protein, 30 min room temperature, 5% TBE gel in 0.5X TBE; protein in an extract; label: biotin
[2] = tested on: aryl hydrocarbon receptor (AhR), presumed AhR:ARNT complex; experiment: pull-down; conditions: streptavidin agarose, proteomic detection of AhR, poly dI.dC; pull-down: PBS, 1 mM EDTA, 1 mM DTT, 4 ug poly dI.dC, protease inhibitor, room temperature; protein in an extract; label: biotin

| Sequence | binding result [1] | binding result [2] |
| --- | --- | --- |
| TACGCGTGTTATTGAACTTC (double strand) [SfUGT33F28 canonical DNA probe 1 (wt)] | binds | binds |
| TATTATTGAACTTCAAAACATAC (double strand) [SfUGT33F28 mutant DNA probe 2 (delta ahr/arnt)] | no binding |  |
